Results as given in patent publication US4209439A, “Stabilization of vinyl resins” (priority 1977, dated 1980).

What was measured:
[1] = static thermostability of polyvinyl chloride, oven at 210° C.; design: key: The symbol "B" indicates "burnt"; the index "+" signifies that the colour is disposed half-way between the lower unit and the upper half-unit; the index "-" signifies that the colour is between the lower half-unit and the upper unit; >2 means that it is between 2 and 2^+
[2] = static thermostability of polyvinyl chloride, oven at […] C.; design: key: The symbol "B" indicates "burnt"; the index "+" signifies that the colour is disposed half-way between the lower unit and the upper half-unit; the index "-" signifies that the colour is between the lower half-unit and the upper unit; >2 means that it is between 2 and 2^+
[3] = photostabilising, flexible vinyl chloride-vinyl acetate copolymer (Example 6); conditions: Test A, 0.3 part

Question: For `CC1=C(C(=O)OC(C)(C)C)CC(C(=O)OC(C)(C)C)=C(C)N1` [L.28510], which colour ([1]; Ex. 10, 0.3 part, 0 min) is on record?
Answer: 1 Gardner

Question: What about the colour ([1]; Ex. 10, 0.3 part, 3 min) of the same molecule?
Answer: 1 Gardner

Question: What about the colour ([1]; Ex. 10, 0.3 part, 6 min) of the same molecule?
Answer: 4 Gardner

Question: What about the colour ([1]; Ex. 10, 0.3 part, 9 min) of the same molecule?
Answer: 5 Gardner

Question: What about the colour ([1]; Ex. 10, 0.3 part, 12 min) of the same molecule?
Answer: 15 Gardner

Question: And the colour ([1]; Ex. 10, 0.3 part, 15 min)?
Answer: B

Question: What about the colour ([2]; 0.3 part, 0 min) of the same molecule?
Answer: 1 Gardner

Question: What about the colour ([2]; 0.3 part, 6 min) of the same molecule?
Answer: 1 Gardner

Question: And the colour ([2]; 0.3 part, 12 min)?
Answer: 2 Gardner

Question: What about the colour ([2]; 0.3 part, 18 min) of the same molecule?
Answer: 4 Gardner

Question: What about the colour ([2]; 0.3 part, 24 min) of the same molecule?
Answer: 10 Gardner

Question: And the colour ([2]; 0.3 part, 27 min)?
Answer: 18 Gardner

Question: And the colour ([2]; 0.3 part, 30 min)?
Answer: 18 Gardner

Question: What about the colour ([2]; 0.3 part, 33 min) of the same molecule?
Answer: 19 Gardner

Question: And the colour ([2]; 0.3 part, 36 min)?
Answer: 19 Gardner

Question: What about the colour ([2]; 0.3 part, 39 min) of the same molecule?
Answer: B

Question: Which results are given for `CCCCCCCCCCOC(=O)C1=C(C)NC(C)=C(C(=O)OCCCCCCCCCC)C1` [L.28591]?
Answer: Coloration ([3]; after 24 hours): 1 degrees Gardner; Coloration ([3]; time 0): 1 degrees Gardner; colour ([1]; 0.1 p.c.r., 0 min): 2 Gardner; colour ([1]; 0.1 p.c.r., 2 min): 2 Gardner; colour ([1]; 0.1 p.c.r., 4 min): 2 Gardner; colour ([1]; 0.1 p.c.r., 6 min): 2 Gardner; colour ([1]; 0.1 p.c.r., 8 min): 2 Gardner; colour ([1]; 0.1 p.c.r., 10 min): 4 Gardner; colour ([1]; 0.1 p.c.r., 12 min): 10.5 Gardner; colour ([1]; 0.2 p.c.r., 0 min): 1 Gardner; colour ([1]; 0.2 p.c.r., 2 min): 1 Gardner; colour ([1]; 0.2 p.c.r., 4 min): 1 Gardner; colour ([1]; 0.2 p.c.r., 6 min): 2 Gardner; colour ([1]; 0.2 p.c.r., 8 min): 2 Gardner; colour ([1]; 0.2 p.c.r., 10 min): 3 Gardner; colour ([1]; 0.2 p.c.r., 12 min): 8 Gardner

Question: For `CCCCCCCCCCCCCCOC(=O)C1=C(C)NC(C)=C(C(=O)OCCCCCCCCCCCCCC)C1` [L.28590, 2,6-Dimethyl-3,5-dicarbotetradecyloxy-1,4-dihydropyridine], which colour ([1]; 0.1 p.c.r., 0 min) is on record?
Answer: 2 Gardner

Question: And the colour ([1]; 0.1 p.c.r., 2 min)?
Answer: 2 Gardner

Question: And the colour ([1]; 0.1 p.c.r., 4 min)?
Answer: 2 Gardner

Question: And the colour ([1]; 0.1 p.c.r., 6 min)?
Answer: 2 Gardner

Question: What about the colour ([1]; 0.1 p.c.r., 8 min) of the same molecule?
Answer: 2 Gardner

Question: And the colour ([1]; 0.1 p.c.r., 10 min)?
Answer: 4 Gardner

Question: What about the colour ([1]; 0.1 p.c.r., 12 min) of the same molecule?
Answer: 10.5 Gardner

Question: And the colour ([1]; 0.2 p.c.r., 0 min)?
Answer: 1 Gardner

Question: What about the colour ([1]; 0.2 p.c.r., 2 min) of the same molecule?
Answer: 1 Gardner

Question: And the colour ([1]; 0.2 p.c.r., 4 min)?
Answer: 1 Gardner

Question: What about the colour ([1]; 0.2 p.c.r., 6 min) of the same molecule?
Answer: 2 Gardner

Question: What about the colour ([1]; 0.2 p.c.r., 8 min) of the same molecule?
Answer: 2 Gardner

Question: What about the colour ([1]; 0.2 p.c.r., 10 min) of the same molecule?
Answer: 3 Gardner

Question: And the colour ([1]; 0.2 p.c.r., 12 min)?
Answer: 7 Gardner

Question: With `CC1=C(C(=O)Oc2ccccc2)CC(C(=O)Oc2ccccc2)=C(C)N1` [L.28531] as the molecule, how does the colour ([2]; 0.3 part, 0 min) read?
Answer: 1 Gardner

Question: What about the colour ([2]; 0.3 part, 6 min) of the same molecule?
Answer: 1 Gardner

Question: And the colour ([2]; 0.3 part, 12 min)?
Answer: 3 Gardner

Question: What about the colour ([2]; 0.3 part, 18 min) of the same molecule?
Answer: 7 Gardner

Question: And the colour ([2]; 0.3 part, 24 min)?
Answer: 10 Gardner

Question: What about the colour ([2]; 0.3 part, 27 min) of the same molecule?
Answer: 10 Gardner

Question: And the colour ([2]; 0.3 part, 30 min)?
Answer: 10 Gardner

Question: And the colour ([2]; 0.3 part, 33 min)?
Answer: 16 Gardner

Question: What about the colour ([2]; 0.3 part, 36 min) of the same molecule?
Answer: B

Question: What about the colour ([2]; equimolecular, 1.55×1^-3 mole, 0 min) of the same molecule?
Answer: 1 Gardner

Question: What about the colour ([2]; equimolecular, 1.55×1^-3 mole, 6 min) of the same molecule?
Answer: 1 Gardner

Question: What about the colour ([2]; equimolecular, 1.55×1^-3 mole, 12 min) of the same molecule?
Answer: 2 Gardner

Question: What about the colour ([2]; equimolecular, 1.55×1^-3 mole, 18 min) of the same molecule?
Answer: 5 Gardner

Question: And the colour ([2]; equimolecular, 1.55×1^-3 mole, 24 min)?
Answer: 8.5 Gardner

Question: And the colour ([2]; equimolecular, 1.55×1^-3 mole, 27 min)?
Answer: 10.5 Gardner

Question: And the colour ([2]; equimolecular, 1.55×1^-3 mole, 30 min)?
Answer: 11 Gardner

Question: And the colour ([2]; equimolecular, 1.55×1^-3 mole, 33 min)?
Answer: 16 Gardner

Question: What about the colour ([2]; equimolecular, 1.55×1^-3 mole, 36 min) of the same molecule?
Answer: B

Question: With `CCCCCCCCCCCCCCCCCCCCCCOC(=O)C1=C(C)NC(C)=C(C(=O)OCCCCCCCCCCCCCCCCCCCCCC)C1` [L.28601] as the molecule, how does the Coloration ([3]; after 24 hours) read?
Answer: 1 degrees Gardner

Question: And the Coloration ([3]; time 0)?
Answer: 1 degrees Gardner

Question: What about the colour ([1]; x = 0.1 to 0.3 p.c.r., 0 min) of the same molecule?
Answer: 1 Gardner

Question: What about the colour ([1]; x = 0.1 to 0.3 p.c.r., 3 min) of the same molecule?
Answer: 1 Gardner

Question: What about the colour ([1]; x = 0.1 to 0.3 p.c.r., 6 min) of the same molecule?
Answer: 2 Gardner

Question: What about the colour ([1]; x = 0.1 to 0.3 p.c.r., 9 min) of the same molecule?
Answer: 2 Gardner

Question: What about the colour ([1]; x = 0.1 to 0.3 p.c.r., 12 min) of the same molecule?
Answer: 4 Gardner

Question: Which Coloration ([3]; after 24 hours) does the source give for `CCCCCCCC/C=C\CCCCCCCCOC(=O)C1=C(C)NC(C)=C(C(=O)OCCCCCCCC/C=C\CCCCCCCC)C1` [L.28602] here?
Answer: 1 degrees Gardner

Question: What about the Coloration ([3]; time 0) of the same molecule?
Answer: 1 degrees Gardner
